Measured values: patent US20080268015A1 (AFFINERGY, published 2008)
Results are given in words; binding and its absence hold for the method and conditions named. Some binding calls cover weakened binding; strength is not graded here.

The chains behind the UniProt entries cited, without tags or fusion partners. Residues count along the entry.
UniProt P18075, residues 293-431: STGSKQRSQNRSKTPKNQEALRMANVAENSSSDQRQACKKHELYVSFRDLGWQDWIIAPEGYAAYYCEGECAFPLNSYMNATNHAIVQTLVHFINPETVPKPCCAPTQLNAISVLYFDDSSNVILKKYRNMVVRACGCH
UniProt P22003, residues 317-454: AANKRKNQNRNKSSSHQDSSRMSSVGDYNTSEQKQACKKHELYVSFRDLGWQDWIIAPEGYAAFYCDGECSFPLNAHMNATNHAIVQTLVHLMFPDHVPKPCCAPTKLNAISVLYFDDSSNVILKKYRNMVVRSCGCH

T1: BMP2 (Bone Morphogenetic Protein 2) (UniProt P12643)
T1 sequence (looked up): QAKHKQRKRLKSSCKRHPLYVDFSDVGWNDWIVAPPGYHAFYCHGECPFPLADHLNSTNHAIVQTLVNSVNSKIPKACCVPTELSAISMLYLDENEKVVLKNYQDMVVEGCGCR

T2: BMP4 (Bone Morphogenetic Protein 4) (UniProt P12644)
T2 sequence (looked up): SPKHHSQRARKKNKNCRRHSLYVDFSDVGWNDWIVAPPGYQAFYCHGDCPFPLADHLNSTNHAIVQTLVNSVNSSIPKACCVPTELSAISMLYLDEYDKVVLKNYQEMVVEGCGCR

T3: BMP14 (Bone Morphogenetic Protein 14) (UniProt P43026)
T3 sequence (looked up): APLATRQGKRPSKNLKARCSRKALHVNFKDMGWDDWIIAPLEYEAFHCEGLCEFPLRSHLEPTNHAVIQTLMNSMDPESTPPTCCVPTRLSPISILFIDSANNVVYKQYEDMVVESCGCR


Experiments:
[1] = target: T1, BMP2 (Bone Morphogenetic Protein 2); test: ELISA-format assay; immobilized peptide also extracted BMP2 from spiked plasma and bone marrow aspirate
[2] = target: BMP7 (Bone Morphogenetic Protein 7) (UniProt P18075); test: ELISA-format assay
[3] = target: T2, BMP4 (Bone Morphogenetic Protein 4); test: ELISA-format assay
[4] = target: T3, BMP14 (Bone Morphogenetic Protein 14); test: ELISA-format assay
[5] = target: BMP5 (Bone Morphogenetic Protein 5) (UniProt P22003); test: ELISA-format assay

| Binder | binding [1] | binding [2] | binding [3] | binding [4] | binding [5] |
| --- | --- | --- | --- | --- | --- |
| GGGAWEAFSSLSGSRV | binds | binds | binds | binds | binds |
| SSWEVFSSLESGSVGAGAGSR [peptide including the amino acid sequence of SEQ ID NO:58 (BMP-binding peptide, Motif 1)] | binds | binds | binds | binds | – |

Further lines, results first:

| binding [1] | binding [2] | binding [3] | binding [4] | binding [5] | Binder |
| --- | --- | --- | --- | --- | --- |
| binds | binds | binds | binds | – | SSSVDLYFPLKGDVVSR [peptide including the amino acid sequence of SEQ ID NO:93 (BMP-binding peptide, Motif 2)] |
| binds | binds | binds | binds | – | GGALGFPLKGEVVEGWA |
